This test is described as follows: qHTS Assay to Find Inhibitors of Chronic Active B-Cell Receptor Signaling. To be noted: ABC-DLBCL IkBa-CBG/CBR reporter, luminescence ratio (green luciferase fused to IkBa over red control in TMD8 lymphoma cells), 4 h. In outline: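 TMD8 human ABC-DLBCL cells with doxycycline-inducible IκBα–green luciferase fusion and unfused red luciferase, in 0.5% FBS medium; compounds up to 46 uM, 4 h at 37C. Green/red luminescence ratio, filter-overlap corrected, fitted to concentration-response curves.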
Background: Quantitative high-throughput screening tests each substance at several concentrations.

[1] abbreviates: measured here: CBR red luminescence, cell number.
[2] abbreviates: measured here: IkBa-CBG green luminescence.

The list shows a part of the results. Shown are side measurements of this screen, not its main read-out; they come without a call. Most of these compounds were active or inconclusive in the main read-out, so they are no random draw. Potencies come from curve fits of mixed quality, noted in brackets.

Broadly, the AC50 is the midpoint of the concentration-response curve, whichever way the signal moves.

Consider `COc1cccc(-c2cc3c(-n4cccc4)ncnc3o2)c1`, for which, under setting [1], the AC50 is 10 µM [falling, partial curve].
On to `O=C(Cc1coc(-c2ccc(F)cc2)n1)NCc1ccccc1`, for which, under setting [1], the AC50 is 0.651 µM [rising, partial curve, poor fit].
Regarding `CN1CCN(C2=CC3=CC(=C(C#N)C#N)CCC3CC2)CC1` (configuration not stated), the AC50 under setting [1] is 0.282 µM [falling, full curve, poor fit].
Turning to `O=C(CCc1nc2ccccc2[nH]1)Nc1ccccc1F`, under setting [1], the AC50 was 12.6 µM [falling, partial curve].
Consider `CC1(c2ccccc2)NC(=O)N(CC(=O)N2CC(=O)Nc3ccccc32)C1=O` (configuration not stated), for which, under setting [1], the AC50 is 14.6 µM [rising, single point].
As to `CN(C(=O)Nc1ccc(Cl)cc1Cl)[C@H]1c2cc(Br)ccc2OC[C@H]1CO`, the AC50 under setting [1] is 23.1 µM [falling, single point].
In the case of `Cc1ccc(C)n1NC(=O)c1ccc(O)cc1`, the AC50 under setting [1] is 8.2 µM [falling, partial curve, poor fit].
Take `O=C1NC(Cc2ccccc2)c2nc3ccc(Cl)cc3c(=O)n2-c2ccc(Cl)cc21` (configuration not stated): the AC50 under setting [1] was 4.61 µM [falling, partial curve].
Still for that read-out and setting: the figure for `O=C(NCc1ccc(Cl)cc1)c1cc(=O)nc2sc(-c3ccccc3)nn12` is 29.1 µM [falling, single point].
With `CCCCCNC(=O)c1ccc2c(=O)n(CC3CCCO3)c(=O)[nH]c2c1` (configuration not stated), under setting [2], the AC50 was 12.6 µM [rising, partial curve, poor fit].
With `COc1cccc(NC(=O)C(NCC2CCCCC2)c2ccccc2)c1` (configuration not stated), the AC50 runs as follows: under setting [1], 32.6 µM [falling, single point]; under setting [2], 29.1 µM [rising, partial curve, poor fit].
For `O=C(COc1ccccc1[N+](=O)[O-])Nc1ccc(NC(=O)c2cc3ccccc3o2)cc1`, the AC50 under setting [1] is 0.631 µM [rising, full curve, poor fit].
Take `CCOC(=O)c1cc(-c2ccc(OC)cc2OC)nn1-c1ccc(C(=O)O)cc1`: the AC50 under setting [1] is 11.2 µM [falling, partial curve].
On to `COC(=O)c1c(NC(=O)CCl)sc(C(=O)N2CCOCC2)c1C`, for which the AC50 under setting [1] is 20 µM [falling, single point].
`Cc1cccc(-n2c(O)c(C=Nc3ccccc3)c3ccccc3c2=O)n1`: under setting [1], the AC50 is 0.891 µM [rising, full curve, poor fit].
On the same count and under the same terms, the value for `Cc1ccc(S(=O)(=O)Nn2c(O)c(C=C3N=c4ccccc4=N3)sc2=S)cc1` was 10 µM [falling, partial curve].
On the same count and under the same terms, the figure for `O=[N+]([O-])c1ccc(NC2CCCC2)cc1` is 7.31 µM [rising, partial curve, poor fit].
The same measure, in the same setting: the value for `C=CCn1c(N)c(C(=O)OCC(C)C)c2nc3ccccc3nc21` was 15.8 µM [falling, single point].
As for `C=CCNC(=O)c1cc(Cl)cc(Cl)c1`, under setting [1], the AC50 is 25.1 µM [rising, single point].
For `COCCN1C(=O)c2ccc(C(=O)Nc3nccs3)cc2C1=O`, the AC50 under setting [1] was 3.16 µM [falling, full curve].
`CCOc1cc(C(=S)N2CCOCC2)ccc1OC(=O)c1cc(OC)c(OC)c(OC)c1`: under setting [1], the AC50 was 35.5 µM [rising, single point].
`COc1ccc(-n2ncc3c(NC(C)C)ncnc32)cc1`: under setting [1], the AC50 is 11.2 µM [falling, single point].
On the same count and under the same terms, the figure for `Cc1ccc(CN2CCC(n3nccc3NC(=O)CCCc3ccccc3)CC2)o1` is 1.78 µM [rising, partial curve, poor fit].
Turning to `CN(CC(=O)Nc1ccc(Cl)cc1)C(=O)c1ccc(COc2ccccc2)cc1`, the AC50 was 29.1 µM [rising, single point] under setting [1] and 32.6 µM [falling, partial curve, poor fit] under setting [2].
Consider `Cc1cc(Oc2ccc(N)cn2)ccc1Cl`, for which, under setting [1], the AC50 is 35.5 µM [rising, single point].
The same measure, in the same setting: the value for `Cc1cc(C)nc(N/N=C/c2ccccc2OCc2ccccc2)n1` was 13 µM [falling, partial curve, poor fit].
The same measure, in the same setting: the value for `c1ccc(-c2cc(N3CCCCC3)ncn2)cc1` was 1.16 µM [rising, full curve, poor fit]; that for `CNC(=O)c1cc2ccc(OC)cc2oc1=O` was 6.51 µM [rising, single point]; that for `COc1cccc(C(=O)Nc2ccc3nc(N4CCOCC4)cc(C)c3c2)c1` was 6.51 µM [falling, partial curve].
On the same count and under the same terms, the figure for `CCN(CC)S(=O)(=O)c1nnc(NC(=O)c2ccco2)s1` is 0.355 µM [rising, partial curve, poor fit]; for `CCOC(=O)CN1C(=O)C(C)(C)Oc2ccc(C(=O)Nc3ccccc3OC)cc21` it is 3.66 µM [rising, full curve].
For the molecule `Cn1cccc1C(=O)OCc1ccc(C(C)(C)C)cc1`, the AC50 under setting [1] is 12.6 µM [rising, partial curve, poor fit].
The same measure, in the same setting: the figure for `Cc1ccc(S(=O)(=O)NCC(=O)N(CC(=O)NCc2ccccc2)CC2CCCO2)cc1` (configuration not stated) is 0.92 µM [falling, full curve, poor fit]; for `N#Cc1cccc(NC(=O)CCNC(=O)c2ccccc2Cl)c1` it is 35.5 µM [rising, partial curve, poor fit].
On the same count and under the same terms, the figure for `Cc1ccc(-c2nnc(CCC(=O)N(C)Cc3nccs3)o2)s1` is 8.91 µM [rising, partial curve, poor fit].
Consider `Cc1sc(/N=C/c2ccccc2O)c(C#N)c1C`, for which the AC50 under setting [1] is 0.82 µM [falling, full curve, poor fit].
As for `CCOc1cccc2cc(-c3csc(NC(=O)CCC(=O)N4CCC(C)CC4)n3)c(=O)oc12`, the AC50 under setting [1] is 0.164 µM [rising, full curve, poor fit].
As to `CCCCn1c(SCC(=O)c2cc(OC)ccc2OC)nc2cc(S(N)(=O)=O)ccc21`, under setting [2], the AC50 is 11.2 µM [falling, partial curve].
Regarding `Cc1cccc(OCCn2c(=S)[nH]c3ccccc32)c1`, the AC50 under setting [1] is 18.4 µM [rising, partial curve, poor fit].
On the same count and under the same terms, the figure for `CC(C)=NOCC(=O)Nn1c(COc2ccccc2)nc2ccccc2c1=O` is 22.4 µM [falling, partial curve].
As to `COc1ccccc1C(=O)O/N=C(\N)c1ccc(Cl)cc1`, under setting [1], the AC50 was 10 µM [falling, partial curve].
On to `CC(C)CCn1c(=O)c2ccccc2n2c(CCl)nnc12`, for which the AC50 under setting [1] was 11.2 µM [falling, partial curve].
The same measure, in the same setting: the value for `CCOC(=O)C1(CC2CCCCO2)CCN(S(=O)(=O)c2ccc(OC)cc2)CC1` (configuration not stated) was 3.16 µM [falling, single point]; that for `CCCCNC(=O)C1CCN(C(=O)Nc2ccc(C)cc2)CC1` was 2.59 µM [rising, full curve, poor fit].
On to `CCOC(=O)/C(C#N)=C\c1ccc(CC)s1`, for which the AC50 under setting [1] is 3.98 µM [rising, full curve, poor fit].
As to `COc1ccccc1C(CNC(=O)C1CCN(C(=O)Nc2ccccc2)CC1)N1CCCC1` (configuration not stated), the AC50 under setting [1] was 7.31 µM [rising, partial curve].
Still for that read-out and setting: the figure for `CN(C(=S)NC(=O)c1ccc(F)cc1)C1CCCCC1` is 0.794 µM [rising, full curve, poor fit].
The same measure, in the same setting: the value for `CCOc1ccc(NC(=O)C(C)NS(=O)(=O)c2ccc(NC(C)=O)cc2)cc1` (configuration not stated) was 3.55 µM [rising, partial curve, poor fit]; that for `O=C(CNCc1ccco1)Nc1cc(S(=O)(=O)N2CCOCC2)ccc1N1CCOCC1` was 6.51 µM [rising, single point]; that for `CCOC(=O)c1ccc2ncc(C(=O)OCC)c(NCCCN3CCOCC3)c2c1` was 17.8 µM [falling, single point].
Regarding `Cc1ccc(C(=O)N(CC(=O)Nc2sc(C)c(C)c2C(N)=O)C2CCCC2)cc1`, the AC50 under setting [1] is 5.62 µM [falling, full curve, poor fit].
For `Cc1cc(Cl)ccc1NC(=S)NCc1ccccc1Cl`, under setting [1], the AC50 is 2.31 µM [rising, partial curve, poor fit].
The same measure, in the same setting: the figure for `Cc1ccc(C(=O)NCC(=O)OCC(=O)NCCNC(=O)COC(=O)CNC(=O)c2ccc(C)cc2)cc1` is 23.1 µM [rising, single point].
In the case of `CCN(CC)CCCNC(=O)c1sc2nc(-c3ccc(F)cc3)cn2c1C`, under setting [2], the AC50 was 2.91 µM [rising, full curve, poor fit].
As to `O=C(NCC1OCCc2ccccc21)c1ccc(NC(=O)c2ccccc2Cl)cc1` (configuration not stated), under setting [1], the AC50 was 18.4 µM [falling, partial curve, poor fit].
The same measure, in the same setting: the value for `O=C(O)CCC(=O)NCc1ccc(F)cc1` was 29.1 µM [rising, single point].
Still for that read-out and setting: the figure for `O=C(NCC(c1ccco1)N1CCc2ccccc21)c1ccc([N+](=O)[O-])cc1` (configuration not stated) is 29.1 µM [falling, single point].
Turning to `COC(=O)c1ccc(CSc2ccc3nnc(-c4ccc(F)cc4)n3n2)o1`, under setting [1], the AC50 was 2.51 µM [falling, full curve, poor fit].
As to `CCN(CC)S(=O)(=O)c1ccc(Cl)c(OC)c1`, the AC50 under setting [1] was 8.2 µM [rising, partial curve].
Still for that read-out and setting: the figure for `O=C(Nc1ccc(Cl)c(Cl)c1)Nc1nnc(CC2=CCCCC2)s1` is 29.1 µM [rising, single point]; for `Cc1ccc(C(=O)N/N=C\c2ccc[nH]2)cn1` it is 16.4 µM [falling, partial curve, poor fit].
On the same count and under the same terms, the value for `O=C(Cn1c(=O)c2c3c(sc2n(Cc2ccccc2)c1=O)CCCC3)NCCO` was 0.501 µM [rising, full curve, poor fit]; that for `Cc1ccc(N2N=C(c3ccc(Br)cc3)CCC2=O)cc1` was 14.6 µM [rising, partial curve]; that for `CC1=C(C(=O)OC(C)C)C(C2CC=CCC2)NC(=O)N1` (configuration not stated) was 20.6 µM [falling, single point].
Still for that read-out and setting: the value for `COc1ccc(N(CC(=O)Nc2ccccc2C(=O)O)S(=O)(=O)c2ccc(C)c([N+](=O)[O-])c2)cc1` was 17.8 µM [rising, partial curve, poor fit].

Source of the values: PubChem BioAssay AID493014 (National Center for Advancing Translational Sciences (NCATS), 2011).
